The target in assay [1] is p53 (mouse (endogenous in primary osteoblastic cells)) (UniProt P02340). The experiment in a line: co-IP; immunoprecipitation with p53 antibody (1C12) from lysates of isogenic p53 WT/WT and p53 KO/KO cells treated with DMSO, 10 uM Nutlin, 10 uM forskolin or forskolin + Nutlin; western blot. For orientation: Immunoblotting shows a protein as a band on a membrane.
The target of assay [2] is Creb1 (mouse (endogenous in primary osteoblastic cells)) (UniProt Q01147). The experiment in a line: co-IP; immunoprecipitation with CREB1 antibody (ab31387) or phospho-CREB1 antibody (Cell Signaling 9198) from lysates of isogenic p53 WT/WT and p53 KO/KO primary osteoblastic cells; 1% NP-40 lysis buffer, low salt, high salt (500 mM NaCl) and LiCl washes; western blot.
The target of assay [3] is Cbp (mouse (endogenous in primary osteoblastic cells)) (UniProt P45481). The experiment in a line: co-IP; immunoprecipitation with CBP antibody (C-1, sc-7300) from lysates of isogenic p53 WT/WT and p53 KO/KO primary osteoblastic cells; 1% NP-40 lysis buffer, low salt, high salt and LiCl washes; western blot.
The target of assay [4] is phospho-Creb1 (mouse (endogenous in primary osteoblastic cells)) (UniProt Q01147). The experiment in a line: co-IP; immunoprecipitation with CREB1 antibody (ab31387) or phospho-CREB1 antibody (Cell Signaling 9198) from lysates of isogenic p53 WT/WT and p53 KO/KO primary osteoblastic cells; 1% NP-40 lysis buffer, low salt, high salt (500 mM NaCl) and LiCl washes; western blot.

Sequences of proteins named here, by UniProt entry; tags and fusion partners are left off. A change or cut given only in a name is not applied to a line headed by its entry. A line that says so, or that is headed by a name, gives the form on record, which may keep a tag or linker.
UniProt P02340: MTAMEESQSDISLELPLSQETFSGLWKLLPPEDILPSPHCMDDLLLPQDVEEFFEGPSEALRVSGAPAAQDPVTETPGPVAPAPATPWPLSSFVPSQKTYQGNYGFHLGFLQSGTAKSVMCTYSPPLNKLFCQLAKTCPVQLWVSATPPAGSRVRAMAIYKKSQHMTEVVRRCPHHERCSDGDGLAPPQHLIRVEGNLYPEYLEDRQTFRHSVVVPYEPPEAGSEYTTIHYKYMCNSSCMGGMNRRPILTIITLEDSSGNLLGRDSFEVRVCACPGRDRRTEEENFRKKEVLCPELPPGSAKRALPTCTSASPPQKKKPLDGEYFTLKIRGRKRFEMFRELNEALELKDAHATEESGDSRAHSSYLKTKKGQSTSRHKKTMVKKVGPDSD
phospho-Creb1 (mouse (endogenous in primary osteoblastic cells)) (Q01147-1, form named): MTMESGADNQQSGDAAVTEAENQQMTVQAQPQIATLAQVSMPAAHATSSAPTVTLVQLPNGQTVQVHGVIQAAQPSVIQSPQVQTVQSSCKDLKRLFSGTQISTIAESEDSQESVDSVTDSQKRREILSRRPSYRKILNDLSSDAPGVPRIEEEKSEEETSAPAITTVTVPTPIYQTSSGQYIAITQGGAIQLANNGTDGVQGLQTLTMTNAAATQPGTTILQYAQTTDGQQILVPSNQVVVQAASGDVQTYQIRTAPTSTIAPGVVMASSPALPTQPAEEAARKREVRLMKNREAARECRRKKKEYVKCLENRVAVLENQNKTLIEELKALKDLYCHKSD
UniProt P45481: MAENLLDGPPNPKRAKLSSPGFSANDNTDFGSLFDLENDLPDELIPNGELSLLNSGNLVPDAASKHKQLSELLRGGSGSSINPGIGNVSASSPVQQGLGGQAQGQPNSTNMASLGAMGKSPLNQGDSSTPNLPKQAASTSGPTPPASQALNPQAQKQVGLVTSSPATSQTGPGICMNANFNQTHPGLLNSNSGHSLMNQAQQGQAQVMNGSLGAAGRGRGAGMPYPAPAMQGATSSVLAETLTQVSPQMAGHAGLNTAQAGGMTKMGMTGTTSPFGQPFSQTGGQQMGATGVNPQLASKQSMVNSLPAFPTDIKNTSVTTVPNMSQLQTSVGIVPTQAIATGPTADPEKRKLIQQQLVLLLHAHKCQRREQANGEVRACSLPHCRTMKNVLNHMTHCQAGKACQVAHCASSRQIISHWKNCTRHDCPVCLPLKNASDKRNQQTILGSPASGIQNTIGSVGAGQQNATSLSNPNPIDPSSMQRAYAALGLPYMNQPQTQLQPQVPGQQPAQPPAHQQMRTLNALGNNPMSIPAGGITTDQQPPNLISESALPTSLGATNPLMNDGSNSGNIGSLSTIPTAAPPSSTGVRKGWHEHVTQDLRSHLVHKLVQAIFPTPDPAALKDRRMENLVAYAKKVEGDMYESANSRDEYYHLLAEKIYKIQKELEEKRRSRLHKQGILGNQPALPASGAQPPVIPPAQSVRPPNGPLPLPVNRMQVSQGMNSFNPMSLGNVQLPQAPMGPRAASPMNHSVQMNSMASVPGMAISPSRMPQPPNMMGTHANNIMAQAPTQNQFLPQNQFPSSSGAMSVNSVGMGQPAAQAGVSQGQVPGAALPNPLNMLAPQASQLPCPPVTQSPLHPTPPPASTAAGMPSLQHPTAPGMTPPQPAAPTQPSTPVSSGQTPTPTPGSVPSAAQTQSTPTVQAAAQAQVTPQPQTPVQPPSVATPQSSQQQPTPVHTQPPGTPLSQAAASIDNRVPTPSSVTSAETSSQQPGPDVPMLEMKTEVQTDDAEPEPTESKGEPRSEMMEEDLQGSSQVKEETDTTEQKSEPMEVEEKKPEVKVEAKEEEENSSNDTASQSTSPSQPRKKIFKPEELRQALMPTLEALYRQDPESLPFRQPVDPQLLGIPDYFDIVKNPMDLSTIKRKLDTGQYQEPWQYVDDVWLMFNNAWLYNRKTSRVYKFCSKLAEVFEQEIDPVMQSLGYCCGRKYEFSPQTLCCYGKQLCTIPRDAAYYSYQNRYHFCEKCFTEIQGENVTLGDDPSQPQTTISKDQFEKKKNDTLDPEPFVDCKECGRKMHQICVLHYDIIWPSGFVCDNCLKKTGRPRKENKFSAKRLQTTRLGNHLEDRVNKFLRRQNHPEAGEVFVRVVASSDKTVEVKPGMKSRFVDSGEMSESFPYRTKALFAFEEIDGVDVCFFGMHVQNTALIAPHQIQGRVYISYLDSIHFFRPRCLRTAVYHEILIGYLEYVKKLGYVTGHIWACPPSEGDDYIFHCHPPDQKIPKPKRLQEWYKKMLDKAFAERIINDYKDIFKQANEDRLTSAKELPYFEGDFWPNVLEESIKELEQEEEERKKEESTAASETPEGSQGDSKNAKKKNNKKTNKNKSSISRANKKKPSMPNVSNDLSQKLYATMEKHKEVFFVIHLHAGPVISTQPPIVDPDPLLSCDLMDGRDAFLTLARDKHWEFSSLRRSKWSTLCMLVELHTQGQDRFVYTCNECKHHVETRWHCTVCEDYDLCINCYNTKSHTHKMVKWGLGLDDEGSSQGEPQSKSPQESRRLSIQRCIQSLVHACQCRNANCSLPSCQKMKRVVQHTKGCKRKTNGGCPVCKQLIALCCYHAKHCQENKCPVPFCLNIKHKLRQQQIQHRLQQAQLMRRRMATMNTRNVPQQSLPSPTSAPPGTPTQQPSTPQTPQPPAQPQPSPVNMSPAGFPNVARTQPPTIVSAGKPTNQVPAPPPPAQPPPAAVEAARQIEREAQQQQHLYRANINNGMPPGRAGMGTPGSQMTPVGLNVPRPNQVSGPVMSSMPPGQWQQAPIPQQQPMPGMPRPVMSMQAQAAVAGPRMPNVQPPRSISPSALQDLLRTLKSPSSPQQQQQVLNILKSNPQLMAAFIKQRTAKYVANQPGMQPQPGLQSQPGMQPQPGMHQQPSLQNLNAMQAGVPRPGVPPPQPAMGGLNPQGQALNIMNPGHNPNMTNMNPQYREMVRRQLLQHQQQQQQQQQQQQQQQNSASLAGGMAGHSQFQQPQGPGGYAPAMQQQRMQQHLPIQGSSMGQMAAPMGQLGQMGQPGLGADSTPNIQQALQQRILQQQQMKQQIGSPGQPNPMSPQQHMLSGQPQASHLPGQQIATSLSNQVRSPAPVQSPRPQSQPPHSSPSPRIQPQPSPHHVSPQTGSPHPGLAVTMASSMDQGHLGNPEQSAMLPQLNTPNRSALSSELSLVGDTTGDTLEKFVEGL

No constants are given. Whether binding was seen depends on the method and setting. In cells and extracts the contact can be indirect. Some entries that bind do so weakly or less than the wild type.

Cbp (from UniProt P45481 1-2441): the binding entry in assay [1] and in assay [2] was “binds” each time.

On to Creb1 (from UniProt Q01147-1 1-341), for which the binding result in assay [1] and in assay [3] was “binds” throughout.

With p53 (from UniProt P02340 1-390), the binding entry in assay [2], in assay [4] and in assay [3] was “binds” each time.
